The results in this text go back to PubChem BioAssay AID212 (DTP/NCI, 2004).

Each structure is given as a SMILES string. The list shows only some results of the screen, not a fair sample: it is rich in T/C values a quarter to a half above the control, in often repeated tests (any T/C) and in doses without a T/C. Other doses and runs of a compound stand elsewhere. T/C gives the treated animals as a percentage of the vehicle group. Schedule codes are those of the source, read here as Q, the interval in days (D) or hours (H), X, the number of doses. Some T/C values carry the count of animals alive at the toxicity check (mostly the fifth day); without a count, all were alive then. Some doses have a count of surviving animals in place of a T/C: the source holds a T/C of zero for them, seemingly a mark for toxic or unscored doses. Counts of survivors are from the toxicity check (mostly the fifth day) where no day follows; animals may have died later. Some doses were run more than once; the results are listed from low to high.

The test system of this experiment is BDF1 mice, colon carcinoma 38 sc, T/C %. Briefly: NCI In Vivo Anticancer Drug Screen. Data for tumor model Colon Carcinoma 38 (subcutaneous) in B6D2F1 (BDF1) mice. The following applies: T/C endpoint: median tumor weight (est.), higher T/C = larger tumour; for T/C: evaluated on day 20. As to the method: The antitumor activity of compounds was measured in mice bearing transplantable tumors. Survival or tumor size were measured and the results are expressed as the measurement made in the treated group (T) divided by the measurement made in the vehicle treated control group (C). The tumor model used in this assay is Colon Carcinoma 38 (subcutaneous) in B6D2F1 (BDF1) mice

Where [1] appears, read: dose: 200.0 mg/kg/injection, schedule: Q07DX002 (ip), vehicle: saline.
The mark [2] stands for this setting: dose: 400.0 mg/kg/injection, schedule: Q07DX002 (ip), vehicle: saline with Tween-80.
Where [3] appears, read: dose: 50.0 mg/kg/injection, schedule: Q07DX002 (ip), vehicle: saline.
The mark [4] stands for this setting: dose: 50.0 mg/kg/injection, schedule: Q07DX003 (ip), vehicle: saline.
[5] abbreviates: dose: 800.0 mg/kg/injection, schedule: Q07DX002 (ip), vehicle: saline with Tween-80.
Setting [6] is: dose: 6.25 mg/kg/injection, schedule: Q07DX002 (ip), vehicle: saline with Tween-80.

For the compound `C/C=C(\C)c1cc(=O)c2c(C)cc3c(c2o1)C(=O)c1c(O)c(C2CC(C)(N(C)C)C(O)C(C)O2)cc(C2CC(N(C)C)C(O)C(C)O2)c1C3=O` (stereo not drawn), the survivor count is 2 of 10 on day 20 (dose: 2.5 mg/kg/injection, schedule: Q07DX002 (ip), vehicle: saline); 6 of 10 on day 20 (dose: 5.0 mg/kg/injection, schedule: Q07DX002 (ip), vehicle: saline); 4 of 10 on day 20 (dose: 2000.0 micrograms/kg/injection, schedule: Q07DX002 (ip), vehicle: saline).

In the case of `C=C1C(=O)OC2CC(C)C3C4OC4C(O)C3(C)C(O)C12` (stereo not drawn), under setting [1], the T/C was 127 % of control.

For the compound `CN=C(N)N/N=C(\C)c1ccc2c(c1)Cc1ccccc1-2`, the survivor count under setting [2] was 0 of 10 on day 20.

Regarding `Cc1cn(C2CC(O)C(CO)O2)c(=O)[nH]c1=O` (stereo not drawn), where the note is “dose: 200.0 mg/kg/injection, schedule: Q07DX003 (ip), vehicle: saline”, the T/C is 137 % of control.

Regarding `O=C1NC(O)CCN1C1OC(CO)C(O)C1O` (stereo not drawn), the T/C under setting [3] is 149 % of control; the T/C under setting [4] was 126 % of control [9 of 10 alive]; the T/C (dose: 800.0 mg/kg/injection, schedule: Q07DX003 (ip), vehicle: saline) was 140 % of control.

As for `CN(C)N=Nc1cccc(C(N)=O)c1`, for the setting “dose: 320.0 mg/kg/injection, schedule: Q07DX002 (ip), vehicle: saline”, the survivor count is reported as 2 of 10 on day 20.

Turning to `CNc1nc2c(N)ncnc2n1C1OC(CO)C(O)C1O` (stereo not drawn), the T/C (dose: 6.25 mg/kg/injection, schedule: Q07DX002 (ip), vehicle: saline) is 128 % of control [9 of 10 alive on day 20]. Further, the survivor count is on record as 4 of 10 on day 20 (dose: 25.0 mg/kg/injection, schedule: Q07DX002 (ip), vehicle: saline); 5 of 10 on day 20 under setting [3]; 1 of 10 on day 20 (dose: 100.0 mg/kg/injection, schedule: Q07DX002 (ip), vehicle: saline); 0 of 10 on day 20 under setting [1].

As for `Clc1ccc(C2SC=Cc3ccccc32)cc1` (stereo not drawn), the survivor count is recorded as 6 of 10 on day 20 (dose: 800.0 mg/kg/injection, schedule: Q07DX002 (ip), vehicle: Klucel (hydroxypropylcellulose) (HPC)) and 1 of 10 on day 20 (dose: 1600.0 mg/kg/injection, schedule: Q07DX002 (ip), vehicle: Klucel (hydroxypropylcellulose) (HPC)).

As for `O=C1C=CN(C2OC(CO)C(O)C2O)C(=O)C1` (stereo not drawn), the T/C by setting is: under setting [4], 134 % of control; (dose: 400.0 mg/kg/injection, schedule: Q07DX003 (ip), vehicle: saline) 130 % of control.

For `O=C(N[C@H](CO)[C@H](O)c1ccc([N+](=O)[O-])cc1)C(Cl)Cl`, the T/C was 132 % of control [9 of 10 alive] (dose: 225.0 mg/kg/injection, schedule: Q07DX002 (ip), vehicle: saline with Tween-80) and 149 % of control (dose: 900.0 mg/kg/injection, schedule: Q07DX002 (ip), vehicle: saline with Tween-80). Moreover, the survivor count by setting is: (dose: 1600.0 mg/kg/injection, schedule: Q07DX002 (ip), vehicle: saline with Tween-80) 2 of 10 on day 20; (dose: 1800.0 mg/kg/injection, schedule: Q07DX002 (ip), vehicle: saline with Tween-80) 2 of 10 on day 20.

`O=C(Nc1ccccc1C(=O)O)c1cc([N+](=O)[O-])cc([N+](=O)[O-])c1`: the T/C (dose: 100.0 mg/kg/injection, schedule: Q07DX002 (ip), vehicle: saline with Tween-80) is 138 % of control. The survivor count by setting is: under setting [2], 1 of 10 on day 20 and 5 of 10 on day 20; under setting [5], 0 of 10 on day 20 and 2 of 10 on day 20.

In the case of `C/C(=N\NC(N)=O)c1cccc(/C(C)=N/NC(N)=O)n1`, the survivor count was 6 of 10 on day 20 (dose: 200.0 mg/kg/injection, schedule: Q07DX002 (ip), vehicle: saline with Tween-80) and 4 of 10 on day 20 under setting [2].

As to `NC(=O)Nc1cc(NC(N)=O)cc(N(CCCl)CCCl)c1`, the survivor count (dose: 80.0 mg/kg/injection, schedule: Q07DX002 (ip), vehicle: Klucel (hydroxypropylcellulose) (HPC)) is reported as 6 of 10 on day 20 and the survivor count (dose: 160.0 mg/kg/injection, schedule: Q07DX002 (ip), vehicle: Klucel (hydroxypropylcellulose) (HPC)) is recorded as 0 of 10 on day 20.

Take `CCCCCCCCCCCCN1C(C)=CS/C1=C\C=C\c1scc(C)[n+]1CCCCCCCCCCCC`: the T/C (dose: 1.56 mg/kg/injection, schedule: Q07DX002 (ip), vehicle: saline with Tween-80) was 128 % of control; the T/C (dose: 3.13 mg/kg/injection, schedule: Q07DX002 (ip), vehicle: saline with Tween-80) was 141 % of control; the T/C under setting [6] was 126 % of control [8 of 10 alive on day 20]. The survivor count (dose: 25.0 mg/kg/injection, schedule: Q07DX002 (ip), vehicle: saline with Tween-80) is 0 of 10 on day 20.

In the case of `CN(CCN(C)C(=O)CCOS(C)(=O)=O)C(=O)CCOS(C)(=O)=O`, the survivor count (dose: 400.0 mg/kg/injection, schedule: Q07DX002 (ip), vehicle: saline) was 4 of 10 on day 20 and 5 of 10 on day 20.

Consider `Nc1cc2c3c(cccc3c1)C(=O)N(CCN1CCCC1)C2=O`, for which the T/C under setting [6] is 140 % of control [9 of 10 alive on day 20] and the T/C (dose: 12.5 mg/kg/injection, schedule: Q07DX002 (ip), vehicle: saline with Tween-80) was 142 % of control [9 of 10 alive on day 20].

Consider `O=C([CH-]C(=O)C(F)(F)F)c1ccccc1.O=C([CH-]C(=O)C(F)(F)F)c1ccccc1.O=C([CH-]C(=O)C(F)(F)F)c1ccccc1.O=C([CH-]C(=O)C(F)(F)F)c1ccccc1.[Eu+3].c1ccncc1`, for which the T/C is 138 % of control (dose: 25.0 mg/kg/injection, schedule: Q07DX002 (ip), vehicle: Klucel (hydroxypropylcellulose) (HPC)) and 130 % of control (dose: 50.0 mg/kg/injection, schedule: Q07DX002 (ip), vehicle: Klucel (hydroxypropylcellulose) (HPC)).

For the compound `CC1=CC2C(O)(CC(CO)=CC3C4C(C)(C)C4(OC(=O)c4ccccc4)C(OC(=O)c4ccccc4)C(C)C32O)C1=O` (stereo not drawn), the T/C runs as follows: (dose: 1.0 mg/kg/injection, schedule: Q07DX002 (ip), vehicle: saline with Tween-80) 144 % of control [7 of 10 alive on day 20]; (dose: 4.0 mg/kg/injection, schedule: Q07DX002 (ip), vehicle: saline with Tween-80) 140 % of control. The survivor count (dose: 8.0 mg/kg/injection, schedule: Q07DX002 (ip), vehicle: saline with Tween-80) is reported as 0 of 10 on day 20.

As to `COc1ccc(C(=O)c2no[n+]([O-])c2C(=O)c2ccc(OC)cc2)cc1`, the survivor count under setting [5] is 5 of 10 on day 20.
